Read-outs that look alike come from different tables or passages of the source. Results are given in words; binding and its absence hold for the method and conditions named. In cells and extracts the contact can be indirect. Some results given as binding are weak or reduced against the parent protein; the word gives no strength. For part of these data: Where a sequence is shown, tags or fusion partners need not be part of it.

Protein sequences, listed by entry. Tags and fused reporters are not part of them.
UniProt P15682: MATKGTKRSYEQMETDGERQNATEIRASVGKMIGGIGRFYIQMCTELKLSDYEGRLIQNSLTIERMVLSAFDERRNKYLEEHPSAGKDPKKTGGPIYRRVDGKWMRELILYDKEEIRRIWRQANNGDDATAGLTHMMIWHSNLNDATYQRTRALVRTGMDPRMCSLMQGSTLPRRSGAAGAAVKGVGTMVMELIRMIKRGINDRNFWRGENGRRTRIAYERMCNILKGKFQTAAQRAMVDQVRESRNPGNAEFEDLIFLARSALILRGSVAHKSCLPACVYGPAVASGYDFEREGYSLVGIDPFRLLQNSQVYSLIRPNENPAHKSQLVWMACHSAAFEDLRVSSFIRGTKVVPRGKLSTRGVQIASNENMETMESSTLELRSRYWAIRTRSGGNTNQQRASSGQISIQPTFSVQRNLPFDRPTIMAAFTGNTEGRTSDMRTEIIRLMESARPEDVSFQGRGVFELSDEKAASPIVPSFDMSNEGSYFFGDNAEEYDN
UniProt Q01650: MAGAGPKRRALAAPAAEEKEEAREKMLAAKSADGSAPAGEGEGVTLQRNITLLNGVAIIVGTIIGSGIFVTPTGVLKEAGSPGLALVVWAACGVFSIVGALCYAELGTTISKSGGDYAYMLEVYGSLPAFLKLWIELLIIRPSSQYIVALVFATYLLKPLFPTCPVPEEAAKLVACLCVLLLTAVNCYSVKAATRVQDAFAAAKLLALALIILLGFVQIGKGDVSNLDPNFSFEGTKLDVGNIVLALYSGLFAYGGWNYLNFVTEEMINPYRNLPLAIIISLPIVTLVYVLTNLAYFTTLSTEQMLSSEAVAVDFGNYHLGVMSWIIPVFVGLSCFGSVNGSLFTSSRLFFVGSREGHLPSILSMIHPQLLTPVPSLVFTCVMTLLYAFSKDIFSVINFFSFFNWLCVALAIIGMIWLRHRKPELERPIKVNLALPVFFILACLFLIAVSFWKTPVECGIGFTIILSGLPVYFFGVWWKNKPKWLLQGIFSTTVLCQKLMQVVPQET
UniProt P03427: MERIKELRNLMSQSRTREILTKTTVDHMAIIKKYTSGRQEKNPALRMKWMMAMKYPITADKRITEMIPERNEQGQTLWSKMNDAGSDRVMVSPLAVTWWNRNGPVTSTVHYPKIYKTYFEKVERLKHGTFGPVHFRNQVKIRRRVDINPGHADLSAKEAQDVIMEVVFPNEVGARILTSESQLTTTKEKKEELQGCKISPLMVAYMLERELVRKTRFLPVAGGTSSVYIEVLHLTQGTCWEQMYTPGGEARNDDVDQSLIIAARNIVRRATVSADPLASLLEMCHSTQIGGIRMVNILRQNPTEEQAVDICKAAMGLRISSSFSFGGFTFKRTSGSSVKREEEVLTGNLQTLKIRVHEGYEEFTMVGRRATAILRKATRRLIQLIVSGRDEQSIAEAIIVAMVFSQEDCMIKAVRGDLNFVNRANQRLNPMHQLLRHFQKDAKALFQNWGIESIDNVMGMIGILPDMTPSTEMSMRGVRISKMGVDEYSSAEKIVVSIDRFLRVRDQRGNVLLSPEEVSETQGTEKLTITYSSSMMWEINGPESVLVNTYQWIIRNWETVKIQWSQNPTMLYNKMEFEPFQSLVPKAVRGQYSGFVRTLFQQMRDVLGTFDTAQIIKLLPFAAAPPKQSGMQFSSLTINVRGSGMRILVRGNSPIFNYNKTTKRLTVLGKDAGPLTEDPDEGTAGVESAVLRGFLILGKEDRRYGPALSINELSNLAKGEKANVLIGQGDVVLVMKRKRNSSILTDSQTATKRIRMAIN
UniProt P05777: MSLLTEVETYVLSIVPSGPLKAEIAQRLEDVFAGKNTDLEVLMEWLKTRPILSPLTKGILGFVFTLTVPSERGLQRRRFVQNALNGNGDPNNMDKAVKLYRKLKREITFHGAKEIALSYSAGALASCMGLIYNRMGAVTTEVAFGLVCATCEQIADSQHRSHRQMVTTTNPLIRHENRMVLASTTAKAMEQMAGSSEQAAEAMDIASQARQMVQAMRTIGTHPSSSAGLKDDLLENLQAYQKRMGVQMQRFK
UniProt P35637: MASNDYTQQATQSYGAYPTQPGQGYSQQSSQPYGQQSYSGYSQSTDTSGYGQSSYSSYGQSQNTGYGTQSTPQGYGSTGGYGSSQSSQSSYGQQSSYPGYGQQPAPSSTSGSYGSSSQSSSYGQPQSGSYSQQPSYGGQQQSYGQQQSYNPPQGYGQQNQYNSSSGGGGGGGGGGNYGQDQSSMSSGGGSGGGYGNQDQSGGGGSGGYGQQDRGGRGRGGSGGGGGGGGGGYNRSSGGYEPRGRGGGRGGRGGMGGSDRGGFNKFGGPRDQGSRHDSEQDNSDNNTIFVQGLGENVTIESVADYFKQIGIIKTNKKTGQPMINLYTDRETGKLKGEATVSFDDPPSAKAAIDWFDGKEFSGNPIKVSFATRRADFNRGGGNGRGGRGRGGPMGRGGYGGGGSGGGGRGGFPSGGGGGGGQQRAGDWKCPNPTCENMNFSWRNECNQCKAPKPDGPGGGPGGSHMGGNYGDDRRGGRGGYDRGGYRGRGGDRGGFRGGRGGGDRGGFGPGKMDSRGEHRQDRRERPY
UniProt P62491: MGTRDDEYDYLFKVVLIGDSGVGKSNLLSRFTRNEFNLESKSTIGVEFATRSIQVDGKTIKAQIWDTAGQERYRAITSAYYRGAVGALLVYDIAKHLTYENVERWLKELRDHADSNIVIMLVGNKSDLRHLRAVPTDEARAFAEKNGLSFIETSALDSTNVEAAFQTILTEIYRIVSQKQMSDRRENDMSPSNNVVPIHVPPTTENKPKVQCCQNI
UniProt P39687: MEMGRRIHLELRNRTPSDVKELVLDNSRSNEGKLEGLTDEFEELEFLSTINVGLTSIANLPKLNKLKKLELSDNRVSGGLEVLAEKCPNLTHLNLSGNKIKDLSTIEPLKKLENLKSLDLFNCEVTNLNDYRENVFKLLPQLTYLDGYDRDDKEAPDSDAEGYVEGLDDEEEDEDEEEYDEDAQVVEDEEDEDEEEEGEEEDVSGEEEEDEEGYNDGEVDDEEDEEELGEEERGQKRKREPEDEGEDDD
UniProt Q12905: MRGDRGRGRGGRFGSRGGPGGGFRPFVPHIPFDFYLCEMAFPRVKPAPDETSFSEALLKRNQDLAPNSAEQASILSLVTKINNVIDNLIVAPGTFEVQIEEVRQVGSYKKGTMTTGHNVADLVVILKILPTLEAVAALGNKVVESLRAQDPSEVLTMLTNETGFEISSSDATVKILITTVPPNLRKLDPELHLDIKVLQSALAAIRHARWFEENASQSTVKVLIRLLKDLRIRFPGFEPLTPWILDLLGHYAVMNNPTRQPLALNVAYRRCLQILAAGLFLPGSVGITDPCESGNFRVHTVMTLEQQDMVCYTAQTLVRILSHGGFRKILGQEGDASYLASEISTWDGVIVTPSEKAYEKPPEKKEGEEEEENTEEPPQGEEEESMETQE
UniProt Q92688: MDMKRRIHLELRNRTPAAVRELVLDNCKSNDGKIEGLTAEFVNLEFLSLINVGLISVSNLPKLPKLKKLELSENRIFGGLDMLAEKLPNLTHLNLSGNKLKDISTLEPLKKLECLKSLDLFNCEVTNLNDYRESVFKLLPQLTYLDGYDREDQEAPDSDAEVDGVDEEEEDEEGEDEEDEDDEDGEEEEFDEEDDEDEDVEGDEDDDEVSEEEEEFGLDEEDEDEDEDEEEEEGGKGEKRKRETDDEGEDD
UniProt Q13148: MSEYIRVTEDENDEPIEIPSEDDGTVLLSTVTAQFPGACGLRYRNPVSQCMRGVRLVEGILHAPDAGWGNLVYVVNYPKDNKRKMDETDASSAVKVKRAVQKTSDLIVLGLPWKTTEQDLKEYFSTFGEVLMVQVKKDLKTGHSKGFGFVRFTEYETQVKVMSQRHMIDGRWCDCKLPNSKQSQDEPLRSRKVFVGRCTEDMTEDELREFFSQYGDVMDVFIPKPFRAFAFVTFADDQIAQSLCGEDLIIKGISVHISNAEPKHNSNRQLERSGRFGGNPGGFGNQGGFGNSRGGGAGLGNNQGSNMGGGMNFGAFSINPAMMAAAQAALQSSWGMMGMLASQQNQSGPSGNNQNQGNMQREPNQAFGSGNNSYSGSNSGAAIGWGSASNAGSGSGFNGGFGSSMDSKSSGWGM

Here are results for ten substances from PMC13423814.

The target in test [1] is Influenza A virus nucleoprotein (NP), strain A/WSN/33 (H1N1) (influenza A virus A/WSN/33 (H1N1)) (UniProt P15682). Put plainly: proximity ligation.
In test [2] the target is T1, NONO (human (endogenous in A549)) (UniProt Q15233).
T1 sequence: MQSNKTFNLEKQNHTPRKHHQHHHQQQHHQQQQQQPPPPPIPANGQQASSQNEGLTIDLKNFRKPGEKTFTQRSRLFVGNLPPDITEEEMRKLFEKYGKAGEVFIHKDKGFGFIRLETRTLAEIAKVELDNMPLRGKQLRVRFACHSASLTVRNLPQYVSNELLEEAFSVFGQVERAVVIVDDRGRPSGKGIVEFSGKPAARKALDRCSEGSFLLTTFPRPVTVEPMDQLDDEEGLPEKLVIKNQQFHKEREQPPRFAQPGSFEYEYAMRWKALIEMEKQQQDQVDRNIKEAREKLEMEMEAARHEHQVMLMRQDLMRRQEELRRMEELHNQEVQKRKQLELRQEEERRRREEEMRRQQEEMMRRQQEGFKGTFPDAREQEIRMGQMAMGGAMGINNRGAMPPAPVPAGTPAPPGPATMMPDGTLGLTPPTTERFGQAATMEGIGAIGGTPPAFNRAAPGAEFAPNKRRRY

For test [3], the target named is T1, NONO (human (endogenous in A549)). Put plainly: co-IP.
Test [4] has as its target SLC7A5 (human (endogenous in A549)) (UniProt Q01650). Put plainly: proximity ligation.
The target of test [5] is T2, Twin-Strep-tagged NONO expressed in HEK293T cells (UniProt Q15233).
T2 sequence: T1 sequence
Put plainly: co-IP.

The target of test [6] is Influenza A virus polymerase subunit PB2, strain A/WSN/33 (H1N1) (influenza A virus A/WSN/33 (H1N1)) (UniProt P03427).
For test [7], the target named is Influenza A virus matrix protein 1 (M1), strain A/WSN/33 (H1N1) (influenza A virus A/WSN/33 (H1N1)) (UniProt P05777).
The target in test [8] is Influenza A virus nucleoprotein (NP), strain A/WSN/33 (H1N1) (influenza A virus A/WSN/33 (H1N1)) (UniProt P15682).
The target is the same in test [9]. The source holds these as a separate data set.

For “Influenza A virus polymerase subunit PB2, strain A/WSN/33 (H1N1) (from UniProt P03427 1-759)”, the binding result in [1] was “binds”.

On to FUS (from UniProt P35637 1-526), for which the binding entry in test [1] is given as “binds”.

“Influenza A virus nucleoprotein (NP), strain A/WSN/33 (H1N1) (from UniProt P15682 1-498)”: the binding entry in [2] and in test [3] was “binds” in each case.

On to SLC3A2 (from UniProt P08195 1-529), for which the binding result in [4] is “binds”.

In the case of “WSN NP expressed in HEK293T cells (from UniProt P15682 1-498)”, the binding result in [5] is recorded as “binds”.

On to RAB11A (from UniProt P62491 1-216), for which, in test [6], the binding result is given as “binds”.

Consider ANP32A (from UniProt P39687 1-249), for which, in test [7], the binding result is “binds”.

For ILF2 (from UniProt Q12905 1-390), the binding result in test [8] and in test [1] was “binds” each time.

On to ANP32B (from UniProt Q92688 1-251), for which the binding entry in test [7] is “binds”.

As to “TDP-43 (TARDBP) (from UniProt Q13148 1-414)”, the binding entry in test [9] is given as “binds”.
